Experimental findings from US20200270345A1 (JOINT STOCK COMPANY BIOCAD, published 2020) are described below.

By UniProt entry, the sequences of proteins in these tests, tags left out. Where a name states a change or a piece, a line headed by the entry shows the natural chain unless it says otherwise.
UniProt Q08722: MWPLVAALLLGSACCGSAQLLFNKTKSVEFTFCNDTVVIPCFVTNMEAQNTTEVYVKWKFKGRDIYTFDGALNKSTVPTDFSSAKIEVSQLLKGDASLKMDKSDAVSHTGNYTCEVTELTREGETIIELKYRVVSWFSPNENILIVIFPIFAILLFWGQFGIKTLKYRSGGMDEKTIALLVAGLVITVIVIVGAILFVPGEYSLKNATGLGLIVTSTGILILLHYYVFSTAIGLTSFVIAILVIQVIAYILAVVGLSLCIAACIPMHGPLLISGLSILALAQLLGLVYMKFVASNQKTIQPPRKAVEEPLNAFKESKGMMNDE

No constants are given. Whether binding was seen depends on the method and setting. Some results given as binding are weak or reduced against the parent protein; the word gives no strength.

This experiment addresses T1, human CD47-Fc (human, UniProt Q08722 19-134).
T1 construct: Leu19-Val134 is the natural numbering printed; also called human CD47-Fc receptor; human CD47-Fc (Biocad); not shown: Fc tag of the expression plasmid
In words: BLI (Octet Red 96), CD47-Fc on ARG2 sensor, VHH in growth medium. Background: In BLI a coated tip is dipped into the sample, and binding shifts an interference pattern.

B1: BCD106-02_L.Alecto.VHHSel2_MP1_G5_37 (VHH)
VHH: AVQLVDSGGGLVQPGGSLRLSCAASRSIFSINAMNWYRQAPGNRREWVAQITDEGITNYVDSVKGRFTITRDNAKNTMYLQMNSLKPEDTAVYYCNAFVITTTSEIYWGQGTTVTVSS
notes: Llama anti-CD47 VHH tested as E. coli culture supernatant; not shown: myc and His6 tags at the C-terminus of the VHH (pET-22)
For the molecule B1, the binding entry was “binds”.
